The source of these data is publication PMC10008690.

Chains of the proteins cited; added tags and fusions are not shown.
UniProt P46934: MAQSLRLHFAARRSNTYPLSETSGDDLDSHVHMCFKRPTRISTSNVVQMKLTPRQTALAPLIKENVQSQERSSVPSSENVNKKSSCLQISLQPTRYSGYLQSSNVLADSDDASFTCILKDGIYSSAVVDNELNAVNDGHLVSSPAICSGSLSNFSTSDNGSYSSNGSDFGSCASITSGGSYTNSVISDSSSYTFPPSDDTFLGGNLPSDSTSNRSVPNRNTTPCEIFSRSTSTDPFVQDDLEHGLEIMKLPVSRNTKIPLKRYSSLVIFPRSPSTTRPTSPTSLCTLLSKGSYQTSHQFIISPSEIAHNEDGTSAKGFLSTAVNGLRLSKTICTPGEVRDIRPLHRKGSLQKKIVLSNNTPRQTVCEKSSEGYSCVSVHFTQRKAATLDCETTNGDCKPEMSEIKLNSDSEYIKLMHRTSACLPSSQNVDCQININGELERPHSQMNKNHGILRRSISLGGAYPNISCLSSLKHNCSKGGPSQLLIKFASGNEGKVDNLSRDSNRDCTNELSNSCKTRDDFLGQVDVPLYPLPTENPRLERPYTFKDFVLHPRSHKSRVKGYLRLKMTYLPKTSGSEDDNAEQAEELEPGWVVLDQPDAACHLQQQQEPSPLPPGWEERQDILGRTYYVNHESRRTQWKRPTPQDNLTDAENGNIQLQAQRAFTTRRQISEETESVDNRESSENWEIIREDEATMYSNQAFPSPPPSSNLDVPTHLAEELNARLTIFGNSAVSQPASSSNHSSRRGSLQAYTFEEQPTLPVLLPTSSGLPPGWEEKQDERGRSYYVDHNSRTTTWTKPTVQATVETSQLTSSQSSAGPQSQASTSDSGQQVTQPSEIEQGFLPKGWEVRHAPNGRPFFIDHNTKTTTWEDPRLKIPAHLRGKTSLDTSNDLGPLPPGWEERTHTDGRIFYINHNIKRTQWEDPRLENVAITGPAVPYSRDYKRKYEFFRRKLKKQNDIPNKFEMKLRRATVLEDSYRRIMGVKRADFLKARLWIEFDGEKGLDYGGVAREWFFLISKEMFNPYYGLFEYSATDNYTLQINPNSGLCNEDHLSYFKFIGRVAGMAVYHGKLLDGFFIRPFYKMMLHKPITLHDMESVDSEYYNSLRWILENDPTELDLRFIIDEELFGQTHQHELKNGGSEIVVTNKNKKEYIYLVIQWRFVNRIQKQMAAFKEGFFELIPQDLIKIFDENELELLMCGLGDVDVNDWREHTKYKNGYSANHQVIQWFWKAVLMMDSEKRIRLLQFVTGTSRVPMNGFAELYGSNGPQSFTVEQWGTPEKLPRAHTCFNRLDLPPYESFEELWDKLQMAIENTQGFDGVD

The target of test [1] is T1, exogenous HMGCL (in 293T cells) (human) (UniProt P35914).
T1 sequence: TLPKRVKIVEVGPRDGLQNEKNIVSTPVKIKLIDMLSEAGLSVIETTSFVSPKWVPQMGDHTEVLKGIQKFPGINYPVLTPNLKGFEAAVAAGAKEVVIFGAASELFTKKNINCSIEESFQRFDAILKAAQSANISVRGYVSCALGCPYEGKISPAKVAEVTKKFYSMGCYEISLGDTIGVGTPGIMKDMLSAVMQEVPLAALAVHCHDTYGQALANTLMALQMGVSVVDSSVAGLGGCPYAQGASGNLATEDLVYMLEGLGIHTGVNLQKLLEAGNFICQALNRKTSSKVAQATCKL
In words: co-IP; exogenous HMGCL and NEDD4 expressed in 293T cells; lysis in 50 mM Tris-HCl pH 8.0, 150 mM NaCl, 1% NP-40; Flag beads overnight at 4 °C; western blot. A general note: In western blotting, separated proteins are transferred to a membrane and probed.

In test [2] the target is T2, GST-HMGCL fusion protein (human) (UniProt P35914).
T2 sequence: T1 sequence
Briefly: pull-down; 10 μg of GST fusion protein incubated with cell lysates for 4 hours, then GST-Sepharose beads for 4 hours; western blot; only the target purified.

Test [3] has as its target T3, endogenous IKKβ (human (endogenous in A549 and H1299)) (UniProt O14920).
T3 sequence: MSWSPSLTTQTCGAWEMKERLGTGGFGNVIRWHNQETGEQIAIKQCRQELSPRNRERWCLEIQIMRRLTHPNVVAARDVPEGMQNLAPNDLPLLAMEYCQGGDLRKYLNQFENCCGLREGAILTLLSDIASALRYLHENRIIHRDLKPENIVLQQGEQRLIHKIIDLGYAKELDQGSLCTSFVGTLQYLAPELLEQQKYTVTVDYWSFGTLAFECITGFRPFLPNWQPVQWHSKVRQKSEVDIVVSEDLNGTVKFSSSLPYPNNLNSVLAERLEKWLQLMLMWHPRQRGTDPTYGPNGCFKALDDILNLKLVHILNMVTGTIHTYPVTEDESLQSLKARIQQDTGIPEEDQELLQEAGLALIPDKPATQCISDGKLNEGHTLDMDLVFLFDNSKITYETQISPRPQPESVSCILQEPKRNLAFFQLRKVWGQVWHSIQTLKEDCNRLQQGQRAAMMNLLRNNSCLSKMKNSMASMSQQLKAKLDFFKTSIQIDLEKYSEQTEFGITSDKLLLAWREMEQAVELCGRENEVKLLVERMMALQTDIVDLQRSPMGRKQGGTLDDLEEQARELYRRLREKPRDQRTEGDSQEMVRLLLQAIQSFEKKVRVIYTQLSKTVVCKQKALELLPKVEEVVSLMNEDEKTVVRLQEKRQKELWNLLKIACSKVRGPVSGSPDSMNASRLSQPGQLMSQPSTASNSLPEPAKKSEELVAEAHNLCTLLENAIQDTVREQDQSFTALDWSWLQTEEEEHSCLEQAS
In words: co-IP; endogenous proteins, A549 and H1299 cells lysed with IP lysis buffer; anti-IKKβ antibody overnight; western blot.

Test [4] deals with endogenous NEDD4 (human (endogenous in H1299 and A549)) (UniProt P46934). Briefly: co-IP; endogenous proteins, H1299 and A549 cells lysed with IP lysis buffer; anti-NEDD4 antibody overnight; western blot.
The target of test [5] is T4, Flag-HMGCL (3-hydroxy-3-methylglutaryl-CoA lyase, exogenous, in lung cancer cells) (human) (UniProt P35914).
T4 sequence: T1 sequence
In words: co-IP; HA-IKKβ and Flag-HMGCL expressed in lung cancer cells; lysis 48 h after transfection in 50 mM Tris-HCl pH 8.0, 150 mM NaCl, 1% NP-40; Flag beads overnight at 4 °C; western blot.

The target in test [6] is T2, GST-HMGCL fusion protein (human). Briefly: pull-down; 10 μg of GST fusion protein incubated with cell lysates for 4 hours, then GST-Sepharose beads for 4 hours; western blot; only the target purified. This is another data set of the same source.

Read-outs that look alike come from different tables or passages of the source. Results are given in words; binding and its absence hold for the method and conditions named. Binding seen in cells or lysates may run through a third protein. Some entries that bind do so weakly or less than the wild type. For part of these data: Where a sequence is shown, tags or fusion partners need not be part of it.

“exogenous NEDD4 (in 293T cells) (from UniProt P46934 1-1319) (enzyme)”: the binding entry in test [1] is on record as “binds”.

On to “endogenous NEDD4 (from UniProt P46934 1-1319) (enzyme)”, for which the binding result in test [2] was “binds”.

B1: endogenous HMGCL (enzyme, UniProt P35914 28-325)
chain: T1 sequence
For B1, the binding entry in test [3] and in test [4] was “binds” throughout.

B2: HA-IKKβ (exogenous) (enzyme, UniProt O14920 1-756)
chain: T3 sequence
For the molecule B2, in test [5], the binding entry was “binds”.

B3: endogenous IKKβ (enzyme, UniProt O14920 1-756)
chain: T3 sequence
With B3, the binding result in test [6] is “binds”.
